Measurements as given in patent publication US20100291097A1.
No constants are given. Whether binding was seen depends on the method and setting. Some results given as binding are weak or reduced against the parent protein; the word gives no strength.

Experiments:
[1] = biological target: Biotinylated complete Aβ1-42 peptide (human sequence, Bachem) (human); experiment: peptide library ELISA, positive control
[2] = biological target: Aβ1-40 peptide, biotinylated (Anaspec); experiment: ELISA on longer biotinylated Aβ peptides
[3] = biological target: Biotinylated complete Aβ1-42 peptide (human sequence, Bachem) (human); experiment: ELISA on longer biotinylated Aβ peptides
[4] = biological target: Aβ1-42 peptide, biotinylated (Anaspec); experiment: ELISA on longer biotinylated Aβ peptides
[5] = biological target: Oligomer-enriched preparation of the Aβ1-42 peptide (W. M. Keck Facility peptide); experiment: ELISA on SEC fractions
[6] = biological target: Monomer-enriched preparation of the Aβ1-42 peptide (W. M. Keck Facility peptide); experiment: ELISA on SEC fractions

Measured: binding

B1: ACI-11-Ab-9 monoclonal antibody (antibody, V domains shown)
VH: QVQLQQSDAELVKPGASVKISCKVSGYTFTDHTIHWMKQRPEQGLEWIGYIYPRDGSTKYNEKFKGKATLTADKSSSTAYMQLNSLTSEDSAVYFCARDYGYAFDYWGQGTTLTVSS
VL: QAVVTQESALTTSPGGTVILTCRSSTGAVTTSNYANWVQEKPDHLFTGLIGGTSNRAPGVPVRFSGSLIGDKAALTITGAQTEDDAMYFCALWYSTHYVFGGGTKVTVL
binds: [1] | [2] | [3] | [4]

B2: ACI-12-Ab-11 monoclonal antibody (antibody, V domains shown)
VH: B1 VH
VL: B1 VL
binds: all assays above
